{"source": "PubChem BioAssay AID1259308 (NCATS, 2017)", "purpose": "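Genes whose loss raises luciferase production in HEK293 cells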 (primary screen)", "system": "human HEK293 embryonic kidney cells stably expressing firefly luciferase (HEK-CMV-Luc2-Hygro)", "reagent": "single siRNA against human genes, 0.8 pmol siRNA per well", "time to read-out": "72 h", "detection": "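Reporter luminescence and viable-cell signal on separate replicate plates, given as percent of non-targeting control and median/MAD z-scores, plus per-cell luciferase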", "reading the numbers": "total luciferase, z-score and total luciferase, % of control: higher = more reporter protein produced", "hit rule": "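An siRNA counts as active if its total luciferase robust z-score exceeds 3; genes with two or more such siRNAs out of three were retested with fresh siRNAs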", "calls": "active = raised luciferase; inactive = no rise", "note": "Here is an unselected part of about 59,000 reagents tested. About 1,510 of them (2.6%) were called active. 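Calls use total luciferase alone and ignore viability, so some active siRNAs may act by altering cell number.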 The numbers tell different reagents against one gene apart. Further read-outs or replicates are left out here."}
{"gene symbol": "DNASE1L3", "reagent no.": 1, "total luciferase, z-score": -1.37, "total luciferase, % of control": 54.6, "Outcome": "inactive"}
{"gene symbol": "DNASE1L3", "reagent no.": 2, "total luciferase, z-score": -0.191, "total luciferase, % of control": 78.1, "Outcome": "inactive"}
{"gene symbol": "DNASE1L3", "reagent no.": 3, "total luciferase, z-score": -1.28, "total luciferase, % of control": 56.4, "Outcome": "inactive"}
{"gene symbol": "APOL4", "reagent no.": 1, "total luciferase, z-score": 1.23, "total luciferase, % of control": 106, "Outcome": "inactive"}
{"gene symbol": "APOL4", "reagent no.": 2, "total luciferase, z-score": -0.92, "total luciferase, % of control": 63.6, "Outcome": "inactive"}
{"gene symbol": "APOL4", "reagent no.": 3, "total luciferase, z-score": -0.948, "total luciferase, % of control": 63, "Outcome": "inactive"}
{"gene symbol": "ICOSLG", "reagent no.": 1, "total luciferase, z-score": 1.11, "total luciferase, % of control": 104, "Outcome": "inactive"}
{"gene symbol": "ICOSLG", "reagent no.": 2, "total luciferase, z-score": -0.799, "total luciferase, % of control": 66, "Outcome": "inactive"}
{"gene symbol": "ICOSLG", "reagent no.": 3, "total luciferase, z-score": -0.407, "total luciferase, % of control": 73.8, "Outcome": "inactive"}
{"gene symbol": "HYKK", "reagent no.": 1, "total luciferase, z-score": -0.596, "total luciferase, % of control": 70, "Outcome": "inactive"}
{"gene symbol": "HYKK", "reagent no.": 2, "total luciferase, z-score": -1.5, "total luciferase, % of control": 52, "Outcome": "inactive"}
{"gene symbol": "HYKK", "reagent no.": 3, "total luciferase, z-score": -0.308, "total luciferase, % of control": 75.8, "Outcome": "inactive"}
{"gene symbol": "WDR12", "reagent no.": 1, "total luciferase, z-score": 1.02, "total luciferase, % of control": 102, "Outcome": "inactive"}
{"gene symbol": "WDR12", "reagent no.": 2, "total luciferase, z-score": -1.71, "total luciferase, % of control": 47.9, "Outcome": "inactive"}
{"gene symbol": "WDR12", "reagent no.": 3, "total luciferase, z-score": -0.506, "total luciferase, % of control": 71.8, "Outcome": "inactive"}

3 of these entries in another layout.
gene symbol	reagent no.	total luciferase, z-score	total luciferase, % of control	Outcome
DNASE1L3	2	-0.191	78.1	inactive
DNASE1L3	3	-1.28	56.4	inactive
APOL4	1	1.23	106	inactive

The list goes on.
{"gene symbol": "KLK8", "reagent no.": 1, "total luciferase, z-score": 0.431, "total luciferase, % of control": 90.5, "Outcome": "inactive"}
{"gene symbol": "KLK8", "reagent no.": 2, "total luciferase, z-score": 1.61, "total luciferase, % of control": 114, "Outcome": "inactive"}
{"gene symbol": "KLK8", "reagent no.": 3, "total luciferase, z-score": -1.08, "total luciferase, % of control": 60.4, "Outcome": "inactive"}
{"gene symbol": "SEC23B", "reagent no.": 1, "total luciferase, z-score": 1.33, "total luciferase, % of control": 108, "Outcome": "inactive"}
{"gene symbol": "SEC23B", "reagent no.": 2, "total luciferase, z-score": -0.435, "total luciferase, % of control": 73.2, "Outcome": "inactive"}
{"gene symbol": "SEC23B", "reagent no.": 3, "total luciferase, z-score": 0.853, "total luciferase, % of control": 98.9, "Outcome": "inactive"}
{"gene symbol": "SEC22B", "reagent no.": 1, "total luciferase, z-score": -1.84, "total luciferase, % of control": 45.2, "Outcome": "inactive"}
{"gene symbol": "SEC22B", "reagent no.": 2, "total luciferase, z-score": 0.807, "total luciferase, % of control": 97.9, "Outcome": "inactive"}
{"gene symbol": "SEC22B", "reagent no.": 3, "total luciferase, z-score": -0.00508, "total luciferase, % of control": 81.8, "Outcome": "inactive"}
{"gene symbol": "ABHD1", "reagent no.": 1, "total luciferase, z-score": -1.25, "total luciferase, % of control": 57, "Outcome": "inactive"}
{"gene symbol": "ABHD1", "reagent no.": 2, "total luciferase, z-score": 0.563, "total luciferase, % of control": 93.1, "Outcome": "inactive"}
{"gene symbol": "ABHD1", "reagent no.": 3, "total luciferase, z-score": -0.514, "total luciferase, % of control": 71.7, "Outcome": "inactive"}
{"gene symbol": "LINC02245", "reagent no.": 1, "total luciferase, z-score": -0.535, "total luciferase, % of control": 71.3, "Outcome": "inactive"}
{"gene symbol": "LINC02245", "reagent no.": 2, "total luciferase, z-score": -1, "total luciferase, % of control": 61.9, "Outcome": "inactive"}
{"gene symbol": "LINC02245", "reagent no.": 3, "total luciferase, z-score": 0.429, "total luciferase, % of control": 90.4, "Outcome": "inactive"}
{"gene symbol": "LOC440982", "reagent no.": 1, "total luciferase, z-score": 0.614, "total luciferase, % of control": 94.1, "Outcome": "inactive"}
{"gene symbol": "LOC440982", "reagent no.": 2, "total luciferase, z-score": -1.39, "total luciferase, % of control": 54.2, "Outcome": "inactive"}
{"gene symbol": "LOC440982", "reagent no.": 3, "total luciferase, z-score": 0.395, "total luciferase, % of control": 89.7, "Outcome": "inactive"}
